In publication PMC11171048:

Columns and labels:
[1] = molecular target: FLAG-tagged bovine DDX3X (bovine); assay: co-IP; HEK293T cells co-transfected; lysates in IP lysis buffer plus PMSF, 4 ug anti-Flag or anti-HA antibody overnight at 4 °C, protein A + G agarose beads 4 h, five washes; Western blot
[2] = molecular target: FLAG-tagged bovine SP110c isoform (bovine); assay: as above

B1: HA-tagged bovine ASC (protein, UniProt Q8HXK9 1-195)
chain: MGCTRDAILDALENLTADELKKFKMKLLSVPLREGYGRIPRGTLLPLDAVDLTDKLVSYYLEAYGAELTALVLRDMGMQEVAEQLQETMSKGPRNVLAEVRDPLQKTAKPGLHFVDQHRAALIARVTVVDGVLDALYGKVLTEEQYQAVRAERTSSDKMRKLFSFSPAWNMTCKDLLLQALRDTQPYLVDDLEQS
binding [1]: no binding
binding [2]: binds weakly

These are yes or no findings as the source states them, for the method shown. Binding seen in cells or lysates may run through a third protein. For some assays here: Binding calls can cover weak binding; strength is not graded here. Where a sequence is shown, tags or fusion partners need not be part of it.
